Data as given in the supplement of paper PMC3334620.
In all, about 33,000 sequences were measured (“E-score (-0.5 to 0.5)”: median about -0.015, highest 2% from about 0.3 on). Some of the results follow.

Target: T1, Abf1 (UniProt P14164)
T1 sequence: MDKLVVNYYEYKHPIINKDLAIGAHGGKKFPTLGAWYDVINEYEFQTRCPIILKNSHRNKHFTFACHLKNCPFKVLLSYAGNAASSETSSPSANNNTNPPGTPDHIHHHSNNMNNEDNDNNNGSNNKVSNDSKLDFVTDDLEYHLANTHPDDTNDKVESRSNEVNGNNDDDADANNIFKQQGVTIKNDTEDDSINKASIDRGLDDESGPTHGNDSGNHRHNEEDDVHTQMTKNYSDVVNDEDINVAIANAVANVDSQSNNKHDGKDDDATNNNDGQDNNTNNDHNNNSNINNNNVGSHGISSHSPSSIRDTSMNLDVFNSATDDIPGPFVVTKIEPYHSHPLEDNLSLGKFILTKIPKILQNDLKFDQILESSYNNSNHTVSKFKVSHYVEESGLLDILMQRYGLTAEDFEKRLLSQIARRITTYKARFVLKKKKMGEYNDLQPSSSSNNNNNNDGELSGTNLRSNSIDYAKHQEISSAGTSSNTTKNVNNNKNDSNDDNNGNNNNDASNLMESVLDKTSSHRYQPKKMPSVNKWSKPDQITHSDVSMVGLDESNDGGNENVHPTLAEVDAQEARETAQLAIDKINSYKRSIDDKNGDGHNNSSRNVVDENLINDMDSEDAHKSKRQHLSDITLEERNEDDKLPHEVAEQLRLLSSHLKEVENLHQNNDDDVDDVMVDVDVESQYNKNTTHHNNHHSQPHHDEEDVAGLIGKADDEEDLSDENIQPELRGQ
Experiment: PBM E-score (8-mer binding enrichment) (E-score (-0.5 to 0.5)); higher = stronger / more preferred TF binding
Details: protein concentration: 200 nM; construct: GST-full length
Summary of the method: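 Full-length yeast transcription factors or their DNA-binding domains, GST-tagged and expressed with PURExpress, were applied at about 100-200 nM to universal all-10-mer Agilent arrays. These arrays had been made double-stranded by primer extension on fresh or once-stripped slides. Detection used fluorescent anti-GST, normalisation used masliner, and E-scores for ungapped eight-base words pooled with reverse complements came from the Universal PBM Analysis Suite.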

Row | Sequence | PBM E-score
1 | CCCTCAAG | -0.192
2 | AGGATCAC | 0.153
3 | ACAGCCCC | -0.255
4 | CCCTGACC | -0.22
5 | CACCACAG | -0.0808
6 | ACCAAACA | 0.239
7 | ATGATAGA | 0.103
8 | CCTACAAG | -0.29
9 | GAGAGATA | -0.0109
10 | CGACTCTA | -0.0601
11 | ACGCGATG | 0.132
12 | CCAGAAGA | -0.0896
13 | CCTTTCAA | -0.0492
14 | GCGCAGAC | -0.113
15 | AAGGCTTC | -0.157
16 | CTCCCGAC | -0.0582
17 | CGGTTCAG | -0.231
18 | GGGTGAGA | -0.136
19 | CAGAAATG | -0.0221
20 | ACTAAAAA | 0.129
21 | GCCTTTTA | 0.0428
22 | GATCTTCA | 0.0137
23 | AATTAAGA | 0.0488
24 | GAGACCAA | -0.0669
25 | CAATGACA | 0.214

Row | Sequence | PBM E-score
26 | CTACAGCA | -0.17
27 | ACTAGTAC | 0.0885
28 | CTAGACAG | -0.158
29 | CGTTCTAG | 0.0852
30 | ACTCCCAA | 0.0267
31 | CTCGAAAG | -0.00955
32 | GCATTCAA | 0.0305
33 | GCTGTTGA | 0.0654
34 | CCCTAATA | -0.0658
35 | CGATCACA | 0.161
36 | GAGACATA | 0.0808
37 | GTGTGCAA | -0.0108
38 | ACGATGAG | 0.185
39 | CGGACGCA | -0.056
40 | ATATTACG | 0.253
41 | CCACCCCA | -0.124
42 | AATGGTAA | 0.111
43 | CAAACTGA | -0.108
44 | CGCCTGAG | -0.0541
45 | GAAATAAA | 0.083
46 | ACACACCT | -0.0974
47 | CGACCGCG | 0.111
48 | CATAAGTA | 0.101
49 | CATTAGAA | -0.048
50 | ACTTACTC | -0.154

Row | Sequence | PBM E-score
51 | ACTATGAT | -0.0345
52 | ACATTAGC | 0.0113
53 | GCACGGCC | 0.0897
54 | ATGGGACA | -0.0986
55 | AATGATCG | 0.232
56 | ATTTATAG | -0.016
57 | ACCACGAG | 0.126
58 | AGCTTGTC | -0.0838
59 | CGCCTCGC | -0.0682
60 | CGCCCGTA | 0.109
61 | GAGGCCAA | -0.163
62 | AATTGAGA | -0.0624
63 | CCGATTAC | -0.0467
64 | CAGGACAG | 0.0588
65 | ATCAAATC | 0.118
66 | AAGAAACA | 0.00526
67 | TACCACTA | 0.0408
68 | GGGCACCC | -0.139
69 | ACCAGTAT | 0.0633
70 | CGTTTCAA | 0.164
71 | ATTGGATA | 0.0891
72 | TGCTAACA | 0.00773
73 | AATATCGT | 0.398
74 | GTAGACCA | -0.0597
75 | AAATTTCA | -0.0339

Row | Sequence | PBM E-score
76 | ACTGGGTA | -0.0366
77 | ATCTTATG | 0.0695
78 | ACCTGGCA | -0.0183
79 | CGGGAGGA | -0.157
80 | AGGGCAGG | -0.231
81 | AGAATACA | 0.00391
82 | GATGGCGA | 0.0515
83 | GACGGTAA | 0.0732
84 | AGACGTCG | 0.0203
85 | CACCTATA | -0.0609
86 | ATCGGCCG | -0.0978
87 | ACAAAGGA | -0.0678
88 | CTCCAATA | -0.0156
89 | CAATTAGG | -0.12
90 | ACATTCGT | 0.163
91 | AGTATCGG | -0.0316
92 | ATGATTAA | 0.296
93 | TCACACGA | 0.297
94 | ACAGACTG | -0.221
95 | GAAGCGAA | 0.0286
96 | TACACTGA | 0.0897
97 | GCCCTGAC | -0.0565
98 | CCCTCAAA | -0.0801
99 | CACTGAGC | -0.14
100 | GTGAGAAC | -0.0155

Row | Sequence | PBM E-score
101 | AGCAACCC | -0.17
102 | AGGGATCA | 0.0623
103 | ATTAATTC | 0.194
104 | GTAAAGAC | 0.0331
105 | AACGGGGT | 0.051
106 | AAAGGACA | -0.0266
107 | AGAAAACA | 0.109
108 | CGGAAACC | -0.219
109 | ACAAATGC | 0.101
110 | GTCATGGA | -0.0337
111 | TAGCCGCA | -0.163
112 | AGGCCTAC | -0.00197
113 | ATATCCTG | 0.0704
114 | CGGTTAAC | -0.269
115 | AACAGATT | 0.0405
116 | CGGGTTTC | -0.129
117 | AAGCCGTG | 0.147
118 | CGGTATAA | 0.208
119 | CATTGTGG | -0.167
120 | ATTCATTA | 0.118
121 | TCCCAGCA | -0.0223
122 | CATCGTTA | 0.00302
123 | GACCTCAC | 0.096
124 | AGACTGGC | -0.297
125 | CTGTTGCA | 0.0169

Row | Sequence | PBM E-score
126 | GCTATCTA | -0.0358
127 | ACCTCTTC | -0.12
128 | AAAACGCC | -0.0152
129 | GAGGGCCA | -0.0366
130 | CGTTAAGC | 0.103
131 | GGCTTACC | -0.23
132 | CTTCACTC | -0.039
133 | AAAACACT | 0.0505
134 | AGAACGTC | 0.071
135 | GATTCTCA | 0.0984
136 | CCAAGTAC | -0.0705
137 | AACGAGAT | 0.141
138 | AGGCCCTC | -0.202
139 | AGGCATCG | -0.0212
140 | AGGGACGC | -0.22
141 | ACCTGCGC | -0.0853
142 | AAGCTGTC | 0.00202
143 | GAGTCTGC | -0.327
144 | GAACGTAA | 0.16
145 | CCCTAACA | 0.0314
146 | GTACTGGA | 0.0937
147 | ACGTTGGA | 0.142
148 | AGTCCCGC | -0.141
149 | CAGCCTTC | -0.199
150 | ATGCAGGG | -0.188

Excerpt, entries 136–137
Row | Sequence | PBM E-score
136 | CCAAGTAC | -0.0705
137 | AACGAGAT | 0.141

Single entries from the results shown:
Value of ACGTTGGA under PBM E-score: 0.142
Value of GGCTTACC under PBM E-score: -0.23

The results go on:

Row | Sequence | PBM E-score
151 | AAAGCTAA | -0.0278
152 | GGACCTGA | -0.15
153 | AGGTCCGC | -0.17
154 | CGATCGCA | 0.0712
155 | ACAAATAA | 0.177
156 | CGCTGGGC | -0.14
157 | TACGCACA | 0.0228
158 | CAGTCGGG | 0.0146
159 | CCACTCGC | -0.198
160 | ACGTCCTA | 0.118
161 | GAACGCAC | -0.0202
162 | CAAAGACA | 0.0294
163 | ATCCGTTA | 0.0368
164 | AGTAATCA | -0.0447
165 | AGGATGCA | -0.0536
166 | CGACCGAC | -0.0557
167 | TGGGCGAA | 0.024
168 | GAACCGGA | -0.121
169 | TATTCGGA | 0.0765
170 | TCTCAGCA | -0.182
171 | ATATCCGG | 0.0227
172 | CCTGGTTA | -0.0879
173 | ACAAATTG | 0.151
174 | TGGCCACA | -0.0329
175 | GTACGCGA | 0.0966

Row | Sequence | PBM E-score
176 | GCTATCAC | 0.211
177 | ACGGCATA | 0.207
178 | ACCTTTTG | -0.00807
179 | CTCCAGTC | -0.222
180 | CGGAAACG | -0.0387
181 | AGTGAGGG | -0.196
182 | TCGAGCCA | -0.154
183 | ATCCACTC | 0.0417
184 | ATTAGCGC | 0.0369
185 | ACCCGCCT | -0.188
186 | AACAGTTG | -0.105
187 | AAACGTAG | -0.0717
188 | AAGGACTC | -0.0574
189 | GCAATTAA | 0.055
190 | AAGGAGAG | -0.184
191 | CTATACTA | 0.0524
192 | AGACCAAA | -0.0337
193 | CAAACATA | -0.24
194 | ATGTTCGG | -0.0954
195 | ACGTGATC | 0.261
196 | CTACAAAC | 0.0458
197 | GACCCCCA | -0.406
198 | CCTCAACG | -0.067
199 | ATCATTCC | 0.25
200 | CTTCGTAC | 0.414

Row | Sequence | PBM E-score
201 | ACCTAACT | 0.139
202 | AGGTGAAC | -0.158
203 | GATGTGGA | 0.127
204 | GAATCCGA | 0.0367
205 | AACTTTTG | -0.0828
206 | GGCTATAC | -0.0369
207 | CAGCATTA | 0.147
208 | AAGCACAA | 0.0452
209 | CTAGCCAG | -0.011
210 | AATCTCGC | 0.136
211 | CAAGGAAA | -0.198
212 | GGTGAAGA | 0.0145
213 | ACTAGCGG | -0.244
214 | ATCGGACG | 0.0252
215 | ATGCTCCC | 0.00623
216 | GTTTTCCA | -0.0188
217 | TAGAGTCA | -0.225
218 | GACGAGAC | 0.233
219 | CGCTCTAA | 0.108

Reformatted: entries from further up
ATGCTCCC
  PBM E-score: 0.00623
GTTTTCCA
  PBM E-score: -0.0188
TAGAGTCA
  PBM E-score: -0.225
GACGAGAC
  PBM E-score: 0.233
